Reference: PubChem BioAssay AID2685 (National Center for Advancing Translational Sciences (NCATS), 2010)
Hit rate of the full screen: of about 320,000 compounds, about 2,100 (0.66%) were called active. The shares of active, inactive and inconclusive entries below differ from those in the screen. Calls come from the whole dose curve; as a rule, active = well fitted inhibition curve with a large enough effect in the signal ratio, with a control signal flat (not every such curve was filed as active); inconclusive = small, poorly fitted or top-dose-only effect, or effect the other way, or a change in a side signal; inactive = flat fitted curve, though single readings scatter; the % refers to the signal ratio. Potencies of inconclusive entries are doubtful fits and often do not repeat.

Assay: qHTS Assay for Lipid Storage Modulators in Drosophila S3 Cells
Conditions: BODIPY lipid droplet fluorescence, 18-24 h, cells fed with added oleic acid; lipid storage change, negative = inhibition: at 46.1 µM (top of the series) unless noted
Method in brief: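 Drosophila S3 cells got compounds at several concentrations plus oleic acid (400 uM solution). Laser-scanning cytometry with 488 nm excitation read lipid droplets at 500-530 nm and cells at 575-640 nm. Percent activity was relative to 20 uM Triacsin C.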
% is set by controls: 0 for no effect and ±100 for the full control effect; potency is the fitted concentration of half-maximal effect.

Which Potency does the source give for `Cc1cc(=O)[nH]c(SCC(=O)/C=C2\N(C)c3ccccc3C2(C)C)n1` here?
The Potency was inconclusive: 29.1 µM [falling, single point].

Which lipid storage change, negative = inhibition does the source give for `O=C(CC1CCCC1)Nc1ccc(Br)cc1` here?
Its lipid storage change, negative = inhibition is inconclusive: 38.1%.

Which lipid storage change, negative = inhibition does the source give for `Cc1ccc2cc3cc(C(=O)N4CCN(Cc5ccccc5)CC4)sc3nc2c1` here?
The lipid storage change, negative = inhibition was inconclusive: -7.9%.

Which lipid storage change, negative = inhibition does the source give for `CC(=O)N(C(C)=O)c1c(C#N)c(C)n(-c2ccccc2)c1C(=O)c1ccccc1` here?
The lipid storage change, negative = inhibition was inconclusive: -44.8%.

With `O=C(NC1CCCCCCC1)c1cnccn1` as the molecule, how does the Potency read?
Its Potency is inconclusive: 29.1 µM [rising, single point].

With `CCn1c(C)cc(O)cc1=O` as the molecule, how does the lipid storage change, negative = inhibition read?
Its lipid storage change, negative = inhibition is inconclusive: 29.3%.

Which Potency does the source give for `CCN(CC)S(=O)(=O)c1ccc(-c2nnc(SCC(=O)Nc3nc(C)cs3)o2)cc1` here?
Its Potency is inconclusive: 7.31 µM [activator, partial curve].

Which lipid storage change, negative = inhibition does the source give for `COc1ccc(NC2C=CS(=O)(=O)C2)c(OC)c1` (stereo unspecified) here?
Its lipid storage change, negative = inhibition is inconclusive: 4.32%.

For `CN(CC(=O)Nc1c(Cl)cccc1Cl)C(=O)c1sccc1-c1ccccc1`, which lipid storage change, negative = inhibition is on record?
The lipid storage change, negative = inhibition was inconclusive: -24.4%.

For `Cc1ccc(C(=O)NCCc2ccc(S(N)(=O)=O)cc2)o1`, which lipid storage change, negative = inhibition is on record?
Its lipid storage change, negative = inhibition is inconclusive: -11.8%.

With `CCOc1cc(C)nc(NCCc2ccc(OC)c(OC)c2)n1` as the molecule, how does the lipid storage change, negative = inhibition read?
Its lipid storage change, negative = inhibition is inconclusive: 97.3%.

Which results are given for `COCCN1C(=S)N[C@@H](c2cccc(F)c2)C(C(=O)OC)=C1C`?
Potency: inconclusive: 16.4 µM [activator, partial curve, poor fit]; lipid storage change, negative = inhibition: inconclusive: 19.3%

With `O=c1[nH]c2ccccc2n2cnnc12` as the molecule, how does the lipid storage change, negative = inhibition read?
Its lipid storage change, negative = inhibition is inconclusive: 36.8%.

For `COc1cc(NC(=O)CCc2nnc3ccc(N4CCOCC4)nn23)cc(OC)c1OC`, which Potency is on record?
The Potency was inconclusive: 29.1 µM [falling, single point].

For `C=CCC(C(=O)NC(C)c1ccccc1)C(=O)NC(C)c1ccccc1` (stereo unspecified), which lipid storage change, negative = inhibition is on record?
The lipid storage change, negative = inhibition was inconclusive: -28.7%.

For `Cc1ccc(S(=O)(=O)NCC(=O)N2CCN(c3ccccn3)CC2)cc1`, which lipid storage change, negative = inhibition is on record?
The lipid storage change, negative = inhibition was inconclusive: 67.5%.

For `CCCC1Cc2c(sc3nc(SC)nc(N)c23)CO1` (stereo unspecified), which lipid storage change, negative = inhibition is on record?
Its lipid storage change, negative = inhibition is inconclusive: 4.56%.

For `CN(C)/C=C(\c1cnc(Cl)s1)S(=O)(=O)c1ccccc1`, which Potency is on record?
The Potency was inconclusive: 29.1 µM [cytotoxic, single point].

Which lipid storage change, negative = inhibition does the source give for `Cn1nc(-c2ccc(Cl)cc2)c2cc(C(=O)NC3CC3)sc21` here?
The lipid storage change, negative = inhibition was inconclusive: -5.27% [at 9.22 µM].

For `COc1ccc(Cl)cc1NC(=O)C/C(C)=N/NC(=O)CC#N`, which lipid storage change, negative = inhibition is on record?
Its lipid storage change, negative = inhibition is inconclusive: -17%.

With `O=C(/C=C/c1ccccc1)NC(NC(=S)Nc1ccc(Cl)cc1)C(Cl)(Cl)Cl` (stereo unspecified) as the molecule, how does the lipid storage change, negative = inhibition read?
Its lipid storage change, negative = inhibition is inconclusive: -167%.

With `CCSc1nc2ccccc2n1CC(=O)N1CCCCC1` as the molecule, how does the lipid storage change, negative = inhibition read?
The lipid storage change, negative = inhibition was inconclusive: 22.3%.

For `Cc1cccc(OCCCCCn2ccnc2)c1C`, which lipid storage change, negative = inhibition is on record?
The lipid storage change, negative = inhibition was inconclusive: -5.51%.

With `CCN(CC(=O)Nc1ccccc1OC)C(=O)CN1C(=O)NC(C)(c2ccc(C)cc2)C1=O` (stereo unspecified) as the molecule, how does the lipid storage change, negative = inhibition read?
Its lipid storage change, negative = inhibition is inconclusive: 7.33%.

Which lipid storage change, negative = inhibition does the source give for `COCCOC(=O)C1=C(C)NC2=C(C(=O)CCC2)C1c1cc2c(cc1Br)OCO2` (stereo unspecified) here?
Its lipid storage change, negative = inhibition is inconclusive: 23.9%.

With `CCOC(=O)/C(=N\Nc1ccc(OC)cc1)c1csc(Nc2ccccc2)n1` as the molecule, how does the lipid storage change, negative = inhibition read?
The lipid storage change, negative = inhibition was inconclusive: -14%.

Which Potency does the source give for `COc1ccc(CNC(=O)C2CCCN(C(=O)Nc3ccc(OC)cc3)C2)cc1` (stereo unspecified) here?
Its Potency is inconclusive: 29.1 µM [activator, single point].

For `CN(C)c1nc(N)nc(/C(C#N)=C/C2CC3C=CC2C3)n1` (stereo unspecified), which lipid storage change, negative = inhibition is on record?
Its lipid storage change, negative = inhibition is inconclusive: -38.5%.

With `O=[N+]([O-])c1ccc(F)cc1OCc1nc(-c2cccs2)no1` as the molecule, how does the lipid storage change, negative = inhibition read?
Its lipid storage change, negative = inhibition is inconclusive: 17.3%.

Which lipid storage change, negative = inhibition does the source give for `Cn1c(/C=C/c2ccccc2)nc2ccccc21` here?
Its lipid storage change, negative = inhibition is inconclusive: 13.8%.

With `CCOC(=O)/C(=N\Nc1ccccc1Cl)N1CCN(Cc2ccccc2)CC1` as the molecule, how does the Potency read?
Its Potency is inconclusive: 29.1 µM [falling, single point].

With `O=C1CCCCN1CCCC(=O)N1CCCC(Nc2ccc(F)c(F)c2)C1` (stereo unspecified) as the molecule, how does the Potency read?
The Potency was inconclusive: 0.731 µM [activator, full curve, poor fit].

With `CC(C)(C)CNC(=O)[C@]1(C)CCC[C@@]2(C)C3CC[C@@]4(C)C[C@]3(CCC21)CC4=O` (stereo partly specified) as the molecule, how does the “lipid storage change, negative = inhibition” value read?
Its value is inactive: 7.09%.

For `c1ccc2[nH]c(CSc3ncnc4c3oc3ccccc34)nc2c1`, which lipid storage change, negative = inhibition is on record?
The lipid storage change, negative = inhibition was inconclusive: -6.36%.

Which Potency does the source give for `O=C(Nc1ccccc1-c1nnn(CC(=O)N2CCOCC2)n1)c1ccc(F)cc1` here?
Its Potency is inconclusive: 29.1 µM [cytotoxic, single point].

Which lipid storage change, negative = inhibition does the source give for `CCC1CCCCN1CCCNC(=O)CS(=O)Cc1nc(-c2ccc(OC)c(OC)c2)oc1C` (stereo unspecified) here?
Its lipid storage change, negative = inhibition is inconclusive: -30.9%.

Which Potency does the source give for `CC(C)C(=O)Nc1ccccc1N1CCN(C(=O)c2ccccc2)CC1` here?
The Potency was inconclusive: 0.259 µM [activator, full curve].

For `Cc1noc(C)c1COc1ccc(C(=O)OCC(=O)Nc2ccc(C(=O)N(C)C)cc2)cc1`, which lipid storage change, negative = inhibition is on record?
Its lipid storage change, negative = inhibition is “inconclusive”.

For `COC(=O)c1sc(NC(=O)COc2cccc(C)c2)nc1C`, which lipid storage change, negative = inhibition is on record?
The lipid storage change, negative = inhibition was inconclusive: 20.9%.

Which lipid storage change, negative = inhibition does the source give for `CC(=O)Nc1ccc(-c2csc(NC(=O)C3CC(=O)N(c4ccc5c(c4)OCCO5)C3)n2)cc1` (stereo unspecified) here?
Its lipid storage change, negative = inhibition is inconclusive: 22.5%.

With `C/C(N)=C(/C#N)C(=O)COc1ncnc2ccc(Br)cc12` as the molecule, how does the lipid storage change, negative = inhibition read?
Its lipid storage change, negative = inhibition is inconclusive: -1.36%.

For `Cc1oc(-c2ccccc2Cl)nc1CN1CCCN(C(=O)c2ccco2)CC1`, which lipid storage change, negative = inhibition is on record?
Its lipid storage change, negative = inhibition is inconclusive: 21%.

For `COCCNC(=S)N(CCN(C)C)Cc1cc2cc3c(cc2[nH]c1=O)OCO3`, which Potency is on record?
The Potency was inconclusive: 29.1 µM [activator, single point].

For `Cc1ccc(C(=O)NCCNC(=O)c2ccco2)cc1C`, which “outcome” value is on record?
The value was “inactive [at 46.1 µM]”.

For `CC(C)CN(C(=O)CSc1nc(-c2ccccc2)cn1N)c1c(N)n(Cc2ccccc2)c(=O)[nH]c1=O`, which lipid storage change, negative = inhibition is on record?
Its lipid storage change, negative = inhibition is inconclusive: 21.7%.

For `Cc1nn(C)c(C)c1-c1c(C#N)c(N)nc2c1CCCCCC2`, which lipid storage change, negative = inhibition is on record?
The lipid storage change, negative = inhibition was inconclusive: 17.6%.

Which Potency does the source give for `COCCn1c(=O)[nH]c2cc(C(=O)NCCCN3CCN(c4ccc(F)cc4)CC3)ccc2c1=O` here?
The Potency was inconclusive: 32.6 µM [falling, single point].

Which lipid storage change, negative = inhibition does the source give for `COC(=O)Cc1ccc(OC(=O)CCS(=O)(=O)c2ccc(Cl)cc2)cc1` here?
The lipid storage change, negative = inhibition was inconclusive: -11.9%.

For `COc1ccc(S(=O)(=O)N2CCOC2CNC(=O)C(=O)NCc2cccnc2)cc1OC` (stereo unspecified), which lipid storage change, negative = inhibition is on record?
Its lipid storage change, negative = inhibition is inconclusive: 9.19%.

With `CC(C)CC(=O)NC(=S)Nc1ccccc1C(F)(F)F` as the molecule, how does the lipid storage change, negative = inhibition read?
Its lipid storage change, negative = inhibition is inconclusive: 21%.
